Measurements: US20080145424A1, “Sustained release L-arginine formulations and methods of manufacture and use” (Enos Phramaceuticals, Inc., priority 2002, published 2008)
At least one compound was matched to its structure with a doubt left.

Legend:
eNOS = eNOS function in cultured human aortic endothelial cells, conversion of labeled L-arginine to L-citrulline; assay type: cell-based; settings: HAEC incubated with 1.0 or 0.3 μM for 24 hours; versus untreated cells
[1] = tested on: endothelium-dependent vasodilation; assay: Endothelium-dependent vasodilation by brachial artery ultrasound in subjects with elevated ADMA; assay type: in vivo, humans; settings: subjects in whom eNOS is blocked by elevated ADMA levels

CCC(C)(C)C(=O)O[C@H]1C[C@@H](C)C=C2C=C[C@H](C)[C@H](CC[C@@H]3C[C@@H](O)CC(=O)O3)[C@H]21 [simvastatin]
level of eNOS function (eNOS): increases | endothelial function [1]: does not enhance
